Experimental data reported in PubChem BioAssay AID2685 (National Center for Advancing Translational Sciences (NCATS), 2010).
“And” between values parts separate entries of the source, which are not always exact repeats. Equal entries are not always repeated. This is one part of the list. The main result of the screen is listed elsewhere. These columns were measured beside it and carry no call. The list favours compounds with an active or inconclusive main result. Words in brackets tell the shape of the fitted curve; partial curves, single points and poor fits give uncertain potencies.

Experiment: qHTS Assay for Lipid Storage Modulators in Drosophila S3 Cells;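 for cell number change: cells counted by Cell Tracker Red CMTPX staining in the red channel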
Conditions: BODIPY lipid droplet fluorescence, 18-24 h; for cell number change: measured here: cell count max response, cells fed with added oleic acid
In short: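 Laser-scanning cytometry quantifies lipid droplet accumulation (500–530 nm total intensity; droplet/cell object ratio) in oleic acid-fed (400 uM added) Drosophila S3 cells treated with a concentration series. 20 uM Triacsin C defined 100% inhibition.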

[1] = measured here: lipid fluorescence (Fed channel) AC50, cells fed with added oleic acid
[2] = measured here: cell number channel AC50, cells fed with added oleic acid

Row | SMILES | cell number change | AC50 [1] | AC50 [2]
1 | COc1ccc(NC(=O)COc2ccc(/C=C/c3cc[n+](C)cc3)cc2OC)cc1 | 11.1% | 0.58 µM [falling, single point] | 
2 | Cc1cc2ccccn2c1C(=O)c1ccc(Cl)cc1 | -24.9% | 18.4 µM [falling, single point] | 
3 | Cn1c(=NC(=O)C2=NNC(=O)CC2)sc2ccccc21 | 50.2% |  | 1.16 µM [rising, full curve, poor fit]
4 | C/C(CCC(=O)O)=N/Nc1ccc([N+](=O)[O-])cc1[N+](=O)[O-] | -24.4% |  | 
5 | CC(C)(C)c1ccc(C(=O)NCc2nnc(SCC(=O)N3CCCc4ccccc43)n2-c2ccccc2)cc1 | -14.6% | 29.1 µM [falling, single point] | 
6 | O=c1c2oc3ccccc3c2ncn1Cc1ccccc1Cl | 101% | 18.4 µM [rising, partial curve] | 18.4 µM [rising, single point]
7 | CCCn1c(SCC(=O)N2CCN(C(=O)c3ccco3)CC2)nc2ccccc2c1=O |  |  | 0.82 µM [rising, full curve, poor fit]
8 | CC(C)C(OC(=O)c1ccco1)C(=O)NCc1ccco1 (configuration not stated) | -4.65% | 0.092 µM [falling, full curve, poor fit] | 
9 | CCn1cc(/C=C/C(=O)Nc2c(C)nn(Cc3ccccc3C)c2C)cn1 | 25.1% | 3.66 µM [rising, partial curve] | 
10 | CCn1c(SCC(=O)NCc2ccccc2)nnc1-c1c[nH]c2ccccc12 | 2.58% | 18.4 µM [rising, single point] | 
11 | O=C(NC(=S)Nc1ccc2ncccc2c1)c1ccccc1 | -9.02% |  | 
12 | CCCn1c(C(C)Nc2nc(-c3ccc(Cl)c([N+](=O)[O-])c3)cs2)nc2ccccc21 (configuration not stated) | 6.47% |  | 
13 | Cc1cc(NC(=O)CCC(=O)N(c2cccc(F)c2)C(C(=O)NC2CCCC2)c2ccccc2)no1 (configuration not stated) | 10.4% | 1.84 µM [rising, full curve] | 
14 | CCOc1ccc(C(=O)/C=C/Nc2ccc(S(=O)(=O)N=C(N)N)cc2)cc1 | 6.39% | 0.731 µM [rising, full curve, poor fit] | 
15 | Nc1cc(N2CCCC2)ccc1[N+](=O)[O-] | -13.1% | 18.4 µM [falling, single point] | 
16 | Cc1ccc2c(C)nc(Nc3nc(CSc4nnnn4-c4ccccc4)cc(=O)[nH]3)nc2c1 |  | 0.651 µM [rising, partial curve, poor fit] | 0.651 µM [rising, single point]
17 | S=C(Nc1ccccn1)c1ccccn1 | -18.1% and -10.5% | 13 µM [falling, partial curve, poor fit] and 25.9 µM [rising, single point] | 
18 | Cc1csc(=O)n1CCC(=O)OCC(=O)Nc1cccc(C#N)c1 | -1.36% | 1.16 µM [falling, full curve] | 
19 | COc1ccc(C(=O)CN2C(=O)NC3(CCCc4ccccc43)C2=O)cc1 (configuration not stated) | 19.7% |  | 3.26 µM [falling, single point]
20 | CCCCNc1c(-c2cccc(-c3ccc(OC)cc3)c2)nc2ccc(C)cn12 | -23.3% | 0.164 µM [rising, full curve, poor fit] | 
21 | O=C(NC(=S)NNC(=O)c1ccc(Cl)cc1Cl)c1cccnc1 |  |  | 0.731 µM [rising, single point]
22 | CC(C)Cc1cc(C(C)(C)C)ccc1OC(=S)N(C)C | 45% | 13 µM [rising, partial curve] | 13 µM [rising, partial curve]
23 | COc1ccc(CC(=O)NNC(=O)CSc2ccc(C)cc2)cc1 |  | 0.13 µM [falling, full curve, poor fit] | 6.51 µM [falling, single point]
24 | Nc1c(Cl)ncnc1N/N=C/c1ccnc2ccccc12 | 8.2% | 1.3 µM [rising, full curve] | 
25 | Cc1cc(C)c(C#N)c(SCC(=O)NC(C)(C)C)n1 | 17.4% | 9.2 µM [rising, partial curve, poor fit] | 
26 | O=C(Cn1c(=O)n(Cc2ccccc2)c(=O)c2ccccc21)NCc1ccco1 | -7.26% | 0.13 µM [rising, full curve, poor fit] | 0.0731 µM [rising, full curve, poor fit]
27 | O=C(Nc1cccc(-c2cnc3ccccc3n2)c1)C1CC(=O)N(c2ccccc2)C1 (configuration not stated) | 47.4% | 1.84 µM [falling, partial curve] | 29.1 µM [rising, single point]
28 | CC(=O)c1ccc(S(=O)(=O)NCCc2csc(-c3cccnc3)n2)cc1 | 9.07% | 1.78 µM [rising, full curve, poor fit] | 
29 | CC(=O)Nc1ccc(C(=O)OCC(=O)NCc2ccc(Cl)cc2)cc1 | -19.9% | 0.461 µM [falling, single point] | 

Part of the list above, with each value named:
CCn1cc(/C=C/C(=O)Nc2c(C)nn(Cc3ccccc3C)c2C)cn1
  cell number change: 25.1%
  AC50 [1]: 3.66 µM [rising, partial curve]
CCn1c(SCC(=O)NCc2ccccc2)nnc1-c1c[nH]c2ccccc12
  cell number change: 2.58%
  AC50 [1]: 18.4 µM [rising, single point]
